By AC50 is commonly meant the concentration giving half of the maximal activity seen.

The other results are listed elsewhere or left out. Shown are side measurements of this screen, not its main read-out; they come without a call. Most of these compounds were active or inconclusive in the main read-out, so they are no random draw. Words in brackets tell the shape of the fitted curve; partial curves, single points and poor fits give uncertain potencies.

The text below walks through data of PubChem BioAssay AID445 (National Center for Advancing Translational Sciences (NCATS), 2006).

This test in a line: IkB Signaling. Particulars: ABC-DLBCL IkBa-CBG/CBR dual luciferase ratio (green luciferase fused to IkBa over red control in OCI-Ly3 lymphoma cells), 4 h; measured here: control luc red channel unless noted. The method, boiled down: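 Luminescence ratio of IκBα-fused green versus native red beetle luciferase in OCI-Ly3 cells, 4 h post-doxycycline with compound; red signal alone, scaled from basal (0%) to zero light (-100%), flagged nonspecific or cytotoxic effects.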
Regarding `CCc1ccc(C(=O)c2cn(CC(=O)Nc3ccc(F)c(F)c3)c3cc(OC)c(OC)cc3c2=O)cc1`, the AC50 was 3.16 µM [falling, partial curve].
The same measure for `CCOc1cccc2cc(-c3nc(-c4ccccc4C)no3)c(=O)oc12`: 2 µM [falling, full curve]; for `O=C(Nc1ccc(Cl)cc1)C1CCCN(S(=O)(=O)c2ccc3[nH]c(=O)ccc3c2)C1` (configuration not stated): 20 µM [falling, partial curve]; for `CCOC(=O)c1ccccc1NC(=O)CSc1cn(CC(=O)N2CCCCC2)c2ccccc12`: 2.51 µM [falling, full curve].
On to `Cc1nc2c(-c3ccccc3)c(C)nn2c(C)c1CCC(=O)NC(C)c1ccccc1` (configuration not stated), for which the AC50 is 39.8 µM [falling, single point].
The same measure for `COc1cccc(CNC(=O)C2CCCN(S(=O)(=O)c3ccc4c(ccn4C)c3)C2)c1` (configuration not stated): 1 µM [falling, full curve]; for `CCOC(=O)c1cccc(NC(=O)c2oc3c(c2C)-c2[nH]ncc2CC3)c1`: 10 µM [falling, partial curve]; for `CCCN(C(=O)c1cc2c(s1)-c1ccccc1OC2)c1ccccc1F`: 1.26 µM [falling, full curve].
The same measure for `CCOc1ccc(NC(=O)C(=O)NCCc2csc(-c3ccc(F)cc3)n2)cc1`: 0.00631 µM [falling, full curve, poor fit]; for `Cn1cc(S(=O)(=O)N2CCCCCC2)cc1C(=O)N1CCN(c2ccc(F)cc2)CC1`: 25.1 µM [falling, partial curve, poor fit]; for `Cc1cccc(CNC(=O)c2oc3c(c2C)-c2nn(Cc4ccccc4Cl)cc2CC3)c1`: 20 µM [falling, partial curve].
For the compound `Cc1ccc(NCc2nnc(SCC(=O)OC3CCCCC3)o2)c(C)c1`, the AC50 is 25.1 µM [falling, partial curve].
In the case of `Cc1cc(OCC(=O)Nc2ccc(-c3nc4cc(Cl)ccc4o3)cc2)cc(C)c1Cl`, the half-maximal activity concentration (AC50) is 25.1 µM [rising, partial curve, poor fit].
The same measure for `O=C(COc1ccccc1)NCc1ccc2c(c1)CCN2C(=O)c1ccc(F)cc1`: 15.8 µM [falling, partial curve]; for `O=C(Nc1ccccc1N1CCCC1)c1cc2ccccc2o1`: 25.1 µM [falling, partial curve].
In the case of `Cc1ccc(Cn2c(=O)c3cccnc3n(CC(=O)Nc3cccc(C(F)(F)F)c3)c2=O)cc1`, the AC50 was 0.158 µM [falling, full curve, poor fit].
Take `COc1ccc(CCNC(=O)c2cc3c(-c4ccccc4F)nn(C)c3s2)c(OC)c1`: the AC50 is 25.1 µM [falling, partial curve].
